No constants are given. Whether binding was seen depends on the method and setting. Some results given as binding are weak or reduced against the parent protein; the word gives no strength.
What was measured:
[1] = biological target: T1, DSR2 W60A (Bacillus subtilis) (UniProt P0DXN8); assay: tandem affinity co-purification + SEC; His-DSR2 and GST-tube made in E. coli; for wild type the cells expressing each were mixed before lysis; Ni-NTA, then glutathione resin, GST removed with HRV 3C, HiTrap Q, Superdex 200 Increase; mutants purified by the same method
T1 sequence: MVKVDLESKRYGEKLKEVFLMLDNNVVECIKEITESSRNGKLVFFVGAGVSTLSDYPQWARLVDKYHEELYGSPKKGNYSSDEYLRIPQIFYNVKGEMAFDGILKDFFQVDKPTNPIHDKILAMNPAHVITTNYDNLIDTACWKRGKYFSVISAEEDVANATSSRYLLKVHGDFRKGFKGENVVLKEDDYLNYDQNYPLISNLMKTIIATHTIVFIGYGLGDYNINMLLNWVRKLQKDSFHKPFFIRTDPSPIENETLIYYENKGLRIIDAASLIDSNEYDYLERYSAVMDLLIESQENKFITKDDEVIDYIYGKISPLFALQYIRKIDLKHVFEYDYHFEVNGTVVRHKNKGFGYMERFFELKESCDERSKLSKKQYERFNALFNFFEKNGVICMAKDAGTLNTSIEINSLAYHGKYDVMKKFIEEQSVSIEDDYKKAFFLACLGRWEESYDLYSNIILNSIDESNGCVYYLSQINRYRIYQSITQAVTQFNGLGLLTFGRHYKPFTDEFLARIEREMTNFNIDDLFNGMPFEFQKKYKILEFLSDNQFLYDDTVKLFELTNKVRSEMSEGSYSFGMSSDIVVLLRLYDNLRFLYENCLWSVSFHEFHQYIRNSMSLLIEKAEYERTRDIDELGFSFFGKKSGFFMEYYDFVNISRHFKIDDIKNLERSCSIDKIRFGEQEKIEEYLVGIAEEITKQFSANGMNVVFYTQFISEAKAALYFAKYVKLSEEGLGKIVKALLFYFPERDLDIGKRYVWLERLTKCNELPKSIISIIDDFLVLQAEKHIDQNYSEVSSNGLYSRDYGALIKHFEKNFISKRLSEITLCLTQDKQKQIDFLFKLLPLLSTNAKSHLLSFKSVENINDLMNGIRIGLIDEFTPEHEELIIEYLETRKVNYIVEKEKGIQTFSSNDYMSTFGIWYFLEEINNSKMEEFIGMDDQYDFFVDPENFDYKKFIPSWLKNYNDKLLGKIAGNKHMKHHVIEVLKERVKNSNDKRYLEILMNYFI

[2] = biological target: T2, DSR2 Y282A (Bacillus subtilis) (UniProt P0DXN8); assay: as above
T2 sequence: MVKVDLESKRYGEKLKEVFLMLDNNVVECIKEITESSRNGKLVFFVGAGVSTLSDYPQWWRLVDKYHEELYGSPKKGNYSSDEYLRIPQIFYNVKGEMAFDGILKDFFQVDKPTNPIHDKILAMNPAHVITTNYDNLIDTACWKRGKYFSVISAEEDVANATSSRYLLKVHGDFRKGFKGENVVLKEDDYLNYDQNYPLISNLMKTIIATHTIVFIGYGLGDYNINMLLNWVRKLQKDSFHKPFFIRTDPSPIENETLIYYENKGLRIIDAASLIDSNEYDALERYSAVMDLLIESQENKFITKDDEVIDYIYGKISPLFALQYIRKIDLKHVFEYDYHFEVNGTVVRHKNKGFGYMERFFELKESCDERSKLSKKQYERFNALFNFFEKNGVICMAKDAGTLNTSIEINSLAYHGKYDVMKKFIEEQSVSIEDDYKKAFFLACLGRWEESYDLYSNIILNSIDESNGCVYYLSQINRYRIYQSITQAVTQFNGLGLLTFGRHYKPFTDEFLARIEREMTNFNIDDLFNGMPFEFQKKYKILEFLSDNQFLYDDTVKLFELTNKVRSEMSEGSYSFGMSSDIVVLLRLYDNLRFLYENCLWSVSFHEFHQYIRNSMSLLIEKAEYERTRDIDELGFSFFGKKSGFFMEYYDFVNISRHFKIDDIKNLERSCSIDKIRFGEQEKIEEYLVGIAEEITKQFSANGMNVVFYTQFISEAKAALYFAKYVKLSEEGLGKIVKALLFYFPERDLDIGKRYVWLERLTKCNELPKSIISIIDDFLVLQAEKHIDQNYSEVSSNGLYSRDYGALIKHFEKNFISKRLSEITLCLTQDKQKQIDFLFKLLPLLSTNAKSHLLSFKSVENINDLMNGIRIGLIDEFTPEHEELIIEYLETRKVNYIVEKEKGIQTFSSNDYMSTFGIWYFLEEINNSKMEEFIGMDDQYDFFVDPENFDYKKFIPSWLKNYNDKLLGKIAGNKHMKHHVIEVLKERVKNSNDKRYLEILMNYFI

B1: tail tube protein of phage SPR, wild type (natural protein)
chain: MKTVIQDTADVYFKRKSDGKLVFTAEAQTASFSQAISEEKLRGGIGNKPLYILKSEKEINLTVKNAFFDLEWLAMTQGETIQEETKVKVFDREHGLIVDDTNKVTLKGKPVSDVTFYNKKGLTYKIAVSTDGTYTIPTAFAAAKDKLTAVYQIEKVGRRLAIKASKFSERYEVEYRTIAYNPDTEEVYSDIYIQFPNVSPSGEFEMSLENGNALAPEIKFEALADTDTDEMAVVIEASRDENTAAPVEDTTGSTQSSDLGGTTE
notes: tail tube protein of Bacillus phage SPR; domains D1 and D2; GST removal with HRV 3C is told for the DSR2-tube complex; Alone it runs as monomeric and oligomeric species on SEC; Only D1 is seen in the maps; also called phage tail tube protein; source: E. coli BL21 Star (DE3); purified alone, or co-purified with DSR2 (Ni-NTA, glutathione resin, HRV 3C cleavage, HiTrap Q, Superdex 200); not shown: …
With B1 the binding [1] was “binds” and the binding [2] was “binds”.

— article PMC10981675, “Structural basis for phage-mediated activation and repression of bacterial DSR2 anti-phage defense system” (Nature Communications, 2024)
